Most values lie at the floor of the assay. Slopes are relative: functional sequences can read slightly below zero.
These substances were tested on Saccharomyces cerevisiae PS128 hsf1 delta, HSF1(1-493) fusion (assay: growth estimate (transactivation domain function in HSF1 fusion, heat-shock survival) (a.u. (slope of normalised read count over time)); higher = stronger growth at 37°C, i.e. more transactivation activity). Conditions: library: random library.
Method: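 Random 60-nt DNA library encoding peptides of up to 20 aa, fused to the C-terminus of yeast HSF1 residues 1-493 (C-terminal TAD deleted) and expressed from the native HSF1 promoter on a CEN plasmid in hsf1-deleted S. cerevisiae PS128. Cells were selected at 37°C on -trp 5-FOA plates for 0, 2, 4, 6 and 8 days and amplicons were sequenced. Growth estimate is the slope of a robust linear fit of total-sum-normalised read counts (normalised to the first time point) over time, using at least 2 replicates. Sequences are classed functional (TAD activity) above a threshold of -0.13, set from stop-codon control sequences.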
With AQLAEIFASALFVRRVLAYM the growth estimate was under -0.25. In the case of AQLGGVSGFARMSRTEVITR, the growth estimate is reported as under -0.25. Substance AQLLGSH has a growth estimate of under -0.25. Work on AQLTKYCCKDRKLVVHWSPY yielded a growth estimate of under -0.25. In the case of AQNSADSVPLCSAVCGMKCC, the growth estimate is reported as under -0.253. With AQP the growth estimate was under -0.25. AQPNCVENAESGLLHQFEPC gave a growth estimate of under -0.25. For AQQHGPYEPTDTRKGGHRLS, the growth estimate was under -0.25. Substance AQQSCLEPSPGFRNQLDGQF has a growth estimate of under -0.25. In the case of AQRALNR, the growth estimate is reported as under -0.25. Substance AQRGPSNAHILGSQPRLSIL has a growth estimate of under -0.25. AQSGVVQTGTVP showed a growth estimate of under -0.25. In the case of AQSNGSRG, the growth estimate is reported as under -0.25. AQSTKK showed a growth estimate of under -0.25. With AQTYESRASGLLGTDDSSLA the growth estimate was under -0.25. For AQWSRKQKQKATTALLTPLD, the growth estimate was under -0.25. Substance ARASDGLCLFQGIWGLFTAA has a growth estimate of under -0.25. For ARASLRRDLIRGGTEAHNMV, the growth estimate was under -0.25. For ARATSWEKLPGPTAGFAA, the growth estimate was under -0.25. For ARAVQVNGRTAQREELAQVQ, the growth estimate was under -0.25. For ARCSSDMG, the growth estimate was under -0.25. Substance AREALSLCADVRPLTGASDL has a growth estimate of under -0.25. For ARGCGASVRRAAKGQMSVIA, the growth estimate was under -0.25. Substance ARGGFRRGVSDAP has a growth estimate of under -0.25. ARGIES showed a growth estimate of under -0.25. For ARGIVQTRSRLSAGSSYHIP, the growth estimate was under -0.25. Substance ARGRSL has a growth estimate of under -0.25. Substance ARGTECARSENGPLLTSTPL has a growth estimate of under -0.25. Work on ARHDDGNLYLRTGCTVTLSW yielded a growth estimate of under -0.25. For ARHFNENYTDGLAWKSWELT, the growth estimate was under -0.25. ARHMDHYRIRSALAI was tested, and the growth estimate was under -0.25. Work on ARHVMACGQATWQGEK yielded a growth estimate of under -0.25. With ARIL the growth estimate was under -0.25. Work on ARITIRASLNLFYPKSSTDR yielded a growth estimate of under -0.25. Substance ARIVPPLGVSLVRSICP has a growth estimate of under -0.25. ARLEGIVKDARRKLLDGIHR was tested, and the growth estimate was under -0.25. Substance ARLGAQECPSRSCTR has a growth estimate of under -0.25. ARLGVVSNLVIRTKDSSWLE was tested, and the growth estimate was under -0.25. ARLSIRSS was tested, and the growth estimate was under -0.25. In the case of ARLYLKRQLRV, the growth estimate is reported as under -0.25. In the case of ARNGRRVTGLCVDACGDLRF, the growth estimate is reported as under -0.25. ARNMKAEKVCSVFT showed a growth estimate of under -0.25. For ARPHICMKYRRYTSIAWVIA, the growth estimate was under -0.25. For ARQREKGATRNATSGPDRNN, the growth estimate was under -0.25. ARR showed a growth estimate of under -0.25. For ARRASGRWVLICVSMVTQW, the growth estimate was under -0.25. For ARRDSREYQVQRHHSYYCK, the growth estimate was under -0.25. ARREDCGS showed a growth estimate of under -0.25. With ARREEKIRNSVGILVWIHRQ the growth estimate was under -0.25. In the case of ARRLSCMSEILRRHTIAELK, the growth estimate is reported as under -0.25. Work on ARRSETRRLKLHLHSQALGS yielded a growth estimate of under -0.25. In the case of ARSFGHVSAY, the growth estimate is reported as under -0.25. Substance ARSHG has a growth estimate of under -0.25. ARTIYHPVLLTRRLWKSQST showed a growth estimate of -0.237. With ARTWIGTVRKTG the growth estimate was under -0.25. For ARVEF, the growth estimate was under -0.25. Substance ARVEVGKDDNFLLQWMKL has a growth estimate of under -0.25. With ARVFNPVVLAVQNRMLPASN the growth estimate was under -0.25. In the case of ARWSWAPTAMCS, the growth estimate is reported as under -0.25. For ARYGC, the growth estimate was under -0.25. ASAACD was tested, and the growth estimate was under -0.25. Work on ASAPEEGGMDDRGQEYLGQM yielded a growth estimate of -0.246. Work on ASAPMPQSLLPSRADHQDPA yielded a growth estimate of under -0.25. Substance ASCDKEFIW has a growth estimate of under -0.25. With ASCECPIIA the growth estimate was under -0.25. For ASDSRRSWRRGRQASGTQKV, the growth estimate was under -0.25. Substance ASDVVWGEGP has a growth estimate of under -0.25. With ASEIPPRPI the growth estimate was -0.185. Substance ASESTTGRDGSAASAHAQRV has a growth estimate of under -0.25. Work on ASFGLLVREGVQHNDPGYGA yielded a growth estimate of under -0.25. Work on ASFGSK yielded a growth estimate of under -0.25. ASFPRRPLKNELLLI gave a growth estimate of under -0.25. Work on ASFRIGHVCGTSLQKRTSKS yielded a growth estimate of under -0.25. With ASGALVPQNTGYFGV the growth estimate was -0.182. For ASGEARLPRGQMHVAYRPLQ, the growth estimate was under -0.25. In the case of ASGPERGLRLLWVFYASVVR, the growth estimate is reported as under -0.25. ASGPKLPRF gave a growth estimate of under -0.25. ASGRRPARL was tested, and the growth estimate was under -0.25. For ASGVRGIAGAYLGWVFGWGS, the growth estimate was under -0.25.
